Taken from: PubChem BioAssay AID652272 (Drosophila RNAi Screening Center, 2013)

Aim: 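Finding fly genes that regulate Hedgehog signal transduction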 (primary screen)
Cell system: Drosophila clone 8 (Cl8) cells
Knock-down reagent: long dsRNA against Drosophila genes
Measured: 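Plate reader light from a firefly reporter under a ptc promoter fragment that responds to Hedgehog, with Renilla light as transfection reference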
Direction: firefly Hh reporter signal: higher = more ptc reporter light; Renilla reference signal: higher = more Renilla control light
Active means: 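Hit when the z-score averaged over two replicates is under -2 or over +3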
Meaning of the calls: active = hit: reporter lowered or raised; inactive = not a hit
The deposit covers about 21,000 reagents; shown is an unselected part of those that have a named target and a result. Of all reagents, 503 (2.4%) are marked active. 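Raw plate light values, not normalised; calls rest on replicate z-scores that were not deposited; hits include reporter decreases as well as increases.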 Entries without a mark were called inactive. Reagents against one gene are numbered here. The record does not give: the amount of reagent, the time to read-out.

| gene knocked down | reagent | firefly Hh reporter signal, replicate 1 | firefly Hh reporter signal, replicate 2 | firefly Hh reporter signal, replicate 3 | Renilla reference signal, replicate 1 | Renilla reference signal, replicate 2 |
| --- | --- | --- | --- | --- | --- | --- |
| spn-B (GeneID 41746) | 1 | 87456 | 97856 | – | 2621 | 2708 |
| CG3457 (GeneID 31196) | 1 | 98163 | 94151 | – | 2016 | 3060 |
| X11Lbeta (GeneID 31997) | 1 | 66778 | 2.26e5 | – | 2205 | 8741 |
| X11Lbeta (GeneID 31997) | 2 | 68410 | 1.96e5 | – | 2314 | 7539 |
| fsd (GeneID 36463) | 1 | 94272 | 43655 | – | 2345 | 3527 |
| CG17593 (GeneID 33573) | 1 | 1.37e5 | 75394 | – | 3467 | 7545 |
| pad (GeneID 41981) | 1 | 1.07e5 | 95116 | – | 2520 | 2955 |
| CG13674 (GeneID 38921) | 1 | 53472 | 1.09e5 | – | 1728 | 7253 |
| Dus1 (GeneID 33190) | 1 | 1.04e5 | 66028 | – | 2624 | 1475 |
| CG6051 (GeneID 43271) | 1 | 1.39e5 | 86198 | – | 3303 | 1850 |
| dmrt93B (GeneID 42494) | 1 | 6.50e5 | 99660 | – | 31536 | 2784 |
| jagn (GeneID 40714) | 1 | 2.06e5 | 1.32e5 | – | 7287 | 5393 |
| Osi14 (GeneID 40770) | 1 | 68491 | 78197 | – | 2700 | 2610 |
| CG1958 (GeneID 31661) | 1 | 1.00e5 | 2.59e5 | – | 3512 | 9863 |
| Nepl3 (GeneID 326172) | 1 | 69616 | 57834 | – | 3250 | 2688 |
| CG15035 (GeneID 31673) | 1 | 80181 | 2.51e5 | – | 3003 | 8779 |
| CG4563 (GeneID 37901) | 1 | 88680 | 57264 | – | 1571 | 4212 |
| rn (GeneID 40879) | 1 | 55792 | 49372 | – | 2713 | 1701 |
| rn (GeneID 40879) | 2 | 92034 | 86180 | – | 3363 | 2672 |
| rn (GeneID 40879) | 3 | 98548 | 1.02e5 | – | 4449 | 3489 |
| rn (GeneID 40879) | 4 | 78552 | 1.08e5 | – | 3507 | 3157 |
| CG2961 (GeneID 31954) | 1 | 66816 | 1.50e5 | – | 2145 | 5354 |
| roh (GeneID 246602) | 1 | 1.38e5 | 2.20e5 | – | 3592 | 11057 |
| Naa15-16 (GeneID 32934) | 1 | 5.79e5 | 7.47e5 | 98875 | 4226 | 4579 |
| CG1999 (GeneID 31671) | 1 | 80355 | 70266 | – | 1376 | 1856 |
| CG1428 (GeneID 35433) | 1 | 84045 | 67763 | – | 2628 | 6833 |
| Nepl7 (GeneID 34671) | 1 | 1.86e5 | 75608 | – | 4962 | 7249 |
| CG6055 (GeneID 34027) | 1 | 1.52e5 | 66624 | – | 3815 | 6491 |
| Hsp67Bc (GeneID 39071) | 1 | 31345 | 35292 | 67524 | 3232 | 4697 |
| Hs3st-B (GeneID 32918) | 1 | 1.01e5 | 3.17e5 | – | 2801 | 12800 |
| ppk12 (GeneID 37566) | 1 | 84544 | 66179 | – | 970 | 4996 |
| CG17784 (GeneID 42909) | 1 | 5.56e5 | 1.16e5 | – | 27907 | 4148 |
| Ube4B (GeneID 34699) | 1 | 84834 | 51946 | – | 3268 | 2048 |
| CG11779 (GeneID 42298) | 1 | 1.07e5 | 45547 | – | 4384 | 1952 |
| Acsf2 (GeneID 33766) | 1 | 1.07e5 | 45165 | – | 3643 | 4213 |
| CG7889 (GeneID 32916) | 1 | 1.79e5 | 1.39e5 | – | 4113 | 2982 |
| CG3640 (GeneID 37942) | 1 | 91977 | 68116 | – | 1465 | 6171 |
| CCT1 (GeneID 42649) | 1 | 8.83e5 | 1.53e5 | – | 56362 | 387 |
| DnaJ-H (GeneID 34707) | 1 | 1.24e5 | 54438 | – | 3235 | 5293 |

Single entries from the entries so far.
Dus1 (GeneID 33190), firefly Hh reporter signal, replicate 2 = 66028
Under “firefly Hh reporter signal, replicate 1”, Hsp67Bc (GeneID 39071) reads 31345
spn-B (GeneID 41746), firefly Hh reporter signal, replicate 2: 97856
For “Renilla reference signal, replicate 2”, ppk12 (GeneID 37566) reads 4996
Naa15-16 (GeneID 32934), firefly Hh reporter signal, replicate 1 = 5.79e5
Result for CG3640 (GeneID 37942) under “firefly Hh reporter signal, replicate 1”: 91977
